Experimental data: PubChem BioAssay AID504808 (Drosophila RNAi Screening Center, 2011)

- Screen: 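Genes whose loss lifts activity of an E2F-responsive reporter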 (primary screen)
- System: Drosophila S2 cells
- Reagents: long dsRNA against Drosophila genes
- Measured: 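Firefly luciferase driven by E2F sites, normalised to Renilla luciferase on the same minimal promoter, measured by plate reader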
- Direction: E2F firefly: higher = more E2F reporter activity; Renilla normaliser: higher = more normaliser reporter signal
- Hit rule: 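Called active if the normalised E2F reporter went up by over 50%; the cutoff is arbitrary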
In all, the deposit lists about 21,000 reagents; shown is a random part of those that have a named target and a result. Of all reagents, 18 (0.084%) got an active call. 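Raw counts without plate normalisation, one of two replicates; the ratio scores behind the calls were not deposited.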 A plus sign joins genes that one reagent is predicted to hit. Not stated in the record: the amount of reagent, the time to read-out.

{"gene":"CG3473","DRSC id":"DRSC01915","E2F firefly, rep 1":1.05e5,"Renilla normaliser, rep 1":4419,"activity call":"inactive"}
{"gene":"CG42717","DRSC id":"DRSC09411","E2F firefly, rep 1":1.31e5,"Renilla normaliser, rep 1":4154,"activity call":"inactive"}
{"gene":"CG4020","DRSC id":"DRSC18337","E2F firefly, rep 1":1.09e5,"Renilla normaliser, rep 1":5869,"activity call":"inactive"}
{"gene":"GC","DRSC id":"DRSC08396","E2F firefly, rep 1":98189,"Renilla normaliser, rep 1":4155,"activity call":"inactive"}
{"gene":"CG15865","DRSC id":"DRSC19733","E2F firefly, rep 1":1.63e5,"Renilla normaliser, rep 1":6330,"activity call":"inactive"}
{"gene":"Bem46","DRSC id":"DRSC00275","E2F firefly, rep 1":1.67e5,"Renilla normaliser, rep 1":6198,"activity call":"inactive"}
{"gene":"Blm + CG14721","DRSC id":"DRSC14943","E2F firefly, rep 1":1.19e5,"Renilla normaliser, rep 1":7030,"activity call":"inactive"}
{"gene":"car","DRSC id":"DRSC20316","E2F firefly, rep 1":1.62e5,"Renilla normaliser, rep 1":5753,"activity call":"inactive"}
{"gene":"Nuak","DRSC id":"DRSC14414","E2F firefly, rep 1":1.54e5,"Renilla normaliser, rep 1":6305,"activity call":"inactive"}
{"gene":"Nuak","DRSC id":"DRSC14415","E2F firefly, rep 1":68022,"Renilla normaliser, rep 1":3331,"activity call":"inactive"}
{"gene":"Nuak","DRSC id":"DRSC14416","E2F firefly, rep 1":1.45e5,"Renilla normaliser, rep 1":6342,"activity call":"inactive"}
{"gene":"CG32221","DRSC id":"DRSC09638","E2F firefly, rep 1":83166,"Renilla normaliser, rep 1":4505,"activity call":"inactive"}

Reprinted from the entries so far (2 entries):
{"gene":"GC","DRSC id":"DRSC08396","E2F firefly, rep 1":98189,"Renilla normaliser, rep 1":4155,"activity call":"inactive"}
{"gene":"CG15865","DRSC id":"DRSC19733","E2F firefly, rep 1":1.63e5,"Renilla normaliser, rep 1":6330,"activity call":"inactive"}
